Measurements as given in PubChem BioAssay AID493014 (National Center for Advancing Translational Sciences (NCATS), 2011).
The list shows a part of the results. Further columns of the screen follow, without active or inactive calls. The list favours compounds with an active or inconclusive main result. The note in brackets gives the kind of curve behind each potency; many fits are weak.

Test: qHTS Assay to Find Inhibitors of Chronic Active B-Cell Receptor Signaling
Settings: ABC-DLBCL IkBa-CBG/CBR reporter, luminescence ratio (green luciferase fused to IkBa over red control in TMD8 lymphoma cells), 4 h; measured here: CBR red luminescence, cell number
Method in brief: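 Doxycycline induced both beetle luciferases in TMD8 lymphoma cells; IKK-driven degradation limits the IkappaBalpha-fused green signal, while red luminescence normalises for cell number and nonspecific effects. Compounds tested up to 46 uM, 4 hrs.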

| SMILES | AC50 |
| --- | --- |
| CC(C)n1c(N2CCN(C(=O)Nc3ccc(Cl)cc3)CC2)nc2ccccc21 | 1.26 µM [rising, full curve, poor fit] |
| CCn1nccc1C(=O)Nc1ccc(S(=O)(=O)NC23CC4CC(CC(C4)C2)C3)cc1 | 14.6 µM [falling, partial curve, poor fit] |
| CC(=O)c1ccc(Oc2ncnc3sccc23)c(CN2CCOCC2)c1 | 25.9 µM [rising, single point] |
| COc1ccc(NC(=O)c2noc3c2CCCCC3)cc1 | 35.5 µM [falling, single point] |
| COc1ccc(OCC(=O)Nc2cccc3ncccc23)cc1 | 20.6 µM [falling, partial curve, poor fit] |
| Cc1ccc(N(C(=O)C2CCCC2)C2C=CS(=O)(=O)C2)cc1C (configuration not stated) | 0.517 µM [falling, partial curve, poor fit] |
| CCCCc1c(CCC)c(=N)c2ccccc2n1C | 5.01 µM [rising, partial curve, poor fit] |
| NC(=O)CSc1ncc(-c2ccccc2)[nH]1 | 14.1 µM [rising, single point] |
| COc1ccc(C(=O)NNC(=O)C(=O)Nc2ccc(C)cc2)cc1 | 10 µM [falling, partial curve] |
| Cc1ccccc1C(=O)N1CCC(C(=O)N(CC(C)C)c2c(N)n(Cc3ccccc3)c(=O)[nH]c2=O)CC1 | 0.146 µM [rising, full curve, poor fit] |
| COc1cccc2sc(Nc3nnc(-c4ccc(F)cc4)o3)nc12 | 0.58 µM [falling, full curve] |
| CC1(C)Cc2c(sc(NC(=O)C3CC(Cl)=CCC3C(=O)O)c2C#N)CO1 (configuration not stated) | 35.5 µM [falling, single point] |
| O=c1c(Br)c(NCc2ccccc2)cnn1-c1ccc(F)cc1 | 22.4 µM [falling, single point] |
| COc1cc(C(=O)NCCCN2CCCC2=O)cc(OC)c1OC | 0.82 µM [rising, partial curve, poor fit] |
| COc1cccc2cc(C(C)N(CCCN3CCOCC3)C(=S)Nc3ccc(C)cc3)oc12 (configuration not stated) | 3.55 µM [rising, partial curve, poor fit] |
| Nc1nc2n(n1)C(c1ccccc1)CC(c1ccc(F)cc1)N2 (configuration not stated) | 17.8 µM [rising, single point] |
| O=C(N/N=C/c1cn(-c2ccccc2)nc1-c1ccc2c(c1)OCCO2)c1ccncc1 | 2.82 µM [rising, full curve, poor fit] |
| Cc1cccc(OCC(=O)N=Nc2c(O)[nH]c3ccc([N+](=O)[O-])cc23)c1 | 0.224 µM [rising, full curve, poor fit] |
| COc1ccc(-c2cc(C(=O)Nc3ccc4c(c3)OCO4)no2)cc1 | 0.708 µM [falling, full curve, poor fit] |
| COC(=O)c1ccc(CS(=O)(=O)c2ccc(C)cc2)cc1 | 32.6 µM [rising, single point] |
| CCOC(=O)c1cc(-c2ccccc2)n(CC(=O)Nc2cccc(OC)c2)c1C | 29.1 µM [rising, single point] |

| SMILES | AC50 |
| --- | --- |
| CCCCCc1ccc(-c2ccc(OC)cc2)nc1 | 3.16 µM [falling, partial curve, poor fit] |
| COc1cccc(C(=O)N2N=C(c3ccccc3)CC2(O)C(F)(F)F)c1 (configuration not stated) | 9.2 µM [falling, partial curve, poor fit] |
| CC1CCc2c(sc(NC(=O)CN3CCN(C(=O)c4ccco4)CC3)c2C#N)C1 (configuration not stated) | 6.31 µM [rising, single point] |
| O=[N+]([O-])c1ccc(O)c(C=Nc2cccc3ccccc23)c1 | 12.6 µM [falling, partial curve, poor fit] |
| c1ccc(CN2CCN(c3nc4ccccc4s3)CC2)cc1 | 0.282 µM [rising, full curve, poor fit] |
| Cc1cccc(C)c1NC(=O)CSc1nnc(Cn2nnc(-c3ccccc3)n2)n1-c1ccccc1 | 17.8 µM [falling, single point] |
| O=C1NC2(CCC3(CC2)OCCO3)NN1c1ccccc1 | 3.55 µM [falling, partial curve, poor fit] |
| COc1ccc(Nc2cccc(Cl)c2)c(C(=O)O)c1 | 11.6 µM [falling, single point] |
| COc1ccc([N+](=O)[O-])cc1N(CC(O)CN1CCOCC1)S(=O)(=O)c1ccccc1 (configuration not stated) | 17.8 µM [falling, single point] |
| CCOc1ccc(-c2cn3ccccc3n2)cc1 | 12.6 µM [falling, single point] |
| Cc1ccccc1C(=O)NNC(=O)C1CC(=O)N(Cc2ccccc2)C1 (configuration not stated) | 18.4 µM [falling, partial curve] |
| Nc1c(C(=O)Nc2ccc(Cl)c(C(=O)O)c2)sc2nc3c(cc12)CCCC3 | 20 µM [falling, partial curve, poor fit] |
| Cc1onc(-c2c(F)cccc2Cl)c1C(=O)Nc1nnc(C2CC2)s1 | 7.08 µM [rising, partial curve, poor fit] |
| Clc1ccccc1-c1ncc(-c2ccccc2)o1 | 35.5 µM [falling, single point] |
| CC(=O)Nc1ccc(S(=O)(=O)Oc2ccccc2N2C(=O)C3C4CCC(C4)C3C2=O)cc1 (configuration not stated) | 35.5 µM [falling, single point] |
| O=C(CNC1CCCCC1)Nc1ccc(Cl)cc1 | 7.94 µM [falling, partial curve, poor fit] |
| Cc1nc(NC(=O)CN2CCOCC2)sc1-c1ccccc1 | 35.5 µM [falling, single point] |
| Cc1cc(OC(=O)c2cc(Cl)nc3ccccc23)ccc1Cl | 7.31 µM [rising, partial curve] |
| CCOc1ccc(-c2cc(CCCC(=O)NCCc3ccccc3)no2)cc1 | 20.6 µM [falling, single point] |
| COC(=O)C1=CN(Cc2ccc(OC)cc2)C=C(C(=O)OC)C1c1ccsc1 | 35.5 µM [falling, single point] |
| CCn1cc(C(=O)NCc2ccco2)c(=O)c2ccc(C)nc21 | 3.55 µM [falling, partial curve, poor fit] |

Single entries from the entries so far:
Under AC50, CCCCc1c(CCC)c(=N)c2ccccc2n1C has 5.01 µM [rising, partial curve, poor fit]
Under AC50, COc1cc(C(=O)NCCCN2CCCC2=O)cc(OC)c1OC has 0.82 µM [rising, partial curve, poor fit]
